Source: PubChem BioAssay AID504523 (Broad Institute, 2011)
Hit rate of the full screen: of about 340,000 compounds, about 490 (0.14%) were called active. This list was built around the results that the source calls inconclusive (neither active nor inactive); the mix of calls is not that of the screen. Rule as the data show it: active = inhibition above about 12%; inconclusive = no clear call, values can overlap the other calls; inactive = below about 7.3%.

Sequences of proteins named here, by UniProt entry; tags and fusion partners are left off.
UniProt Q14145, whole entry, looked up: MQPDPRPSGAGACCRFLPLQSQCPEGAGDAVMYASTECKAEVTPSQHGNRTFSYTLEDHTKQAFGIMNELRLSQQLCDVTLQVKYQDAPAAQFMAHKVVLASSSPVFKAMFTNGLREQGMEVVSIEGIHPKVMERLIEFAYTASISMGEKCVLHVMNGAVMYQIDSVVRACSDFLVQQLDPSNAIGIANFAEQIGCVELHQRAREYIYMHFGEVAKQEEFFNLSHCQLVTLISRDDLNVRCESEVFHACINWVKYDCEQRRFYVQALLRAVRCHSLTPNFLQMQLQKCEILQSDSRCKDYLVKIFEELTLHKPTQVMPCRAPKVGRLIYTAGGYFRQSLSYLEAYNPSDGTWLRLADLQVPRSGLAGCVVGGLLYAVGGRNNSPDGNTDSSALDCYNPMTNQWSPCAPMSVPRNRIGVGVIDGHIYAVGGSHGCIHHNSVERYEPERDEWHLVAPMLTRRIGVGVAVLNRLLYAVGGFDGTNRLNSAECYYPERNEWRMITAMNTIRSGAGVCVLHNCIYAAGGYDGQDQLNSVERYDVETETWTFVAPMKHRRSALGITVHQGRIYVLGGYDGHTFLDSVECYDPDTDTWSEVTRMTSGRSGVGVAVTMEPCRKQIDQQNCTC

Target: Kelch-like ECH-associated protein 1 (Homo sapiens) (UniProt Q14145)
Assay: disruptors of Keap1 binding to Nrf2 – biochemical, fluorescence polarization, single point, primary screen (AID 504523);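 also: human Keap1 Kelch domain with fluorescein labeled Nrf2 9mer peptide probe; 0% = neutral control wells and 100% = peptide positive control; higher means more block of Keap1 binding to Nrf2 peptide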
Conditions: Keap1 Kelch-Nrf2 peptide fluorescence polarization, 1536-well; at 9.4 µM; stronger effect = higher value

SMILES | inhibition
CCCCN(CCCC)C1=Nc2ccccc2N/C1=C(/C#N)C(=O)OCC | inconclusive: 9.36%
CCOC(=O)N1CCN(c2nc3ccccc3nc2C(C#N)C(=O)NCCc2ccccc2)CC1 (stereo unspecified) | inconclusive: 10.9%
Cc1c(C(=O)NC(C)CN2CCCCC2)oc2ccccc12 (stereo unspecified) | inconclusive: 9.04%
O=C(c1cccc(S(=O)(=O)N2CCc3ccccc32)c1)N1CCN(c2ccccc2)CC1 | inconclusive: 9.41%
CCC(NC(=O)c1ccc([N+](=O)[O-])cc1[N+](=O)[O-])c1ccccc1 (stereo unspecified) | inconclusive: 9.24%
CCOC(=O)c1cc([N+](=O)[O-])cc([N+](=O)[O-])c1Sc1ncnc2nc[nH]c12 | inconclusive: 10.2%
CC1CCC(NC(=O)c2ccc(-n3cncn3)c([N+](=O)[O-])c2)CC1 (stereo unspecified) | inactive: -3.95%
N#Cc1cc2c(=O)n3ccccc3nc2n(-c2ccccc2Cl)c1=O | inconclusive: 8.88%
COc1ccc(/C=N/Nc2cc(N3CCOCC3)ncn2)c(OC)c1 | inconclusive: 10.1%
CCCCNc1c2c3c(cccc3n(C)c1=O)C(=O)c1ccccc1-2 | active: 57.7%
COC(=O)Cc1c(C)c2ccc(OC(C)C)cc2oc1=O | inconclusive: 7.88%
O=C(CSc1nccc2ccccc12)N1CCN(c2ccccn2)CC1 | inconclusive: 4.81%
COc1cc(C2C=C(c3cccs3)Nc3ncnn32)cc(OC)c1OC (stereo unspecified) | active: 87.7%
CCCCn1nc(C(=O)OCC(=O)Nc2sccc2C(N)=O)c2ccccc2c1=O | inconclusive: 7.33%
COC(=O)c1cccc(NC(=O)CCNC(=O)c2ccco2)c1 | inconclusive: 9.23%
Cc1cnc(C(=O)OCc2nc3ccccc3o2)cn1 | inconclusive: 8.91%
CC1CCN(c2ccc3c(c2)S(=O)(=O)c2ccccc2C3=O)CC1 | active: 20.9%
O=[N+]([O-])c1cc([N+](=O)[O-])c(Oc2ccc(F)cc2F)cc1NN1CCCCC1 | inconclusive: 10.7%
Cn1nccc1NS(=O)(=O)c1ccc(NC(=O)C(F)(F)F)cc1 | inconclusive: 10.2%

Some of these compounds in order of length of the SMILES, high to low.
SMILES | inhibition
CCOC(=O)c1cc([N+](=O)[O-])cc([N+](=O)[O-])c1Sc1ncnc2nc[nH]c12 | inconclusive: 10.2%
CC1CCN(c2ccc3c(c2)S(=O)(=O)c2ccccc2C3=O)CC1 | active: 20.9%
COC(=O)c1cccc(NC(=O)CCNC(=O)c2ccco2)c1 | inconclusive: 9.23%

(list continues)

SMILES | inhibition
Cc1cc(C(=O)O)ccc1-c1ccc(/C=C2\SC(=O)N(CC(=O)Nc3ccc4c(c3)OCO4)C2=O)o1 | active: 13.5%
CCN(C(=O)COC(=O)c1ccc([N+](=O)[O-])o1)C1CCCCC1 | inactive: 0.821%
CCc1ccc(N2CC(C(=O)OCC(=O)N(CC)c3c(N)n(Cc4ccccc4)c(=O)[nH]c3=O)CC2=O)cc1 (stereo unspecified) | active: 188%
O=C(NC1=C(Nc2ccc(Cl)cc2)C(=O)c2ccccc2C1=O)c1ccccc1 | inactive: -2.56%
CC(C)NC(=O)CN1C(=O)c2cccc3cccc1c23 | inconclusive: 7.51%
NC(=O)c1c(NC(=O)c2c(F)cccc2F)sc2c1CCN(Cc1ccccc1)C2 | inactive: -20%
Cc1ccccc1C(=O)Nc1ccnn1C1CCN(Cc2ccc(CO)o2)CC1 | inactive: -0.0793%
COc1cc(NS(=O)(=O)c2ccc(OC)c(C)c2C)c(OC)cc1Cl | inactive: 1.02%
O=C1CC2(CCCCC2)Oc2ccc(O)cc21 | inconclusive: 10.6%
CCOc1ccc(Cn2nnc(C(=O)Nc3ccc(OC)cc3OC)c2N)cc1 | inconclusive: 4.58%
Cc1cccc(N2C(=O)c3cccc4c(N(C)CCO)ccc(c34)C2=O)c1 | active: 12.4%
CN1CCc2c(sc(NC(=O)c3ccc4ccccc4c3)c2C(N)=O)C1 | inconclusive: -5.46%
COC(=O)CCN1CCN(S(=O)(=O)c2ccccc2Br)CC1 | inconclusive: 4.26%
CCc1nnc(SCc2ccc(C(=O)OC)o2)n1N | inconclusive: 6.95%
CC(=O)Nc1ccc(S(=O)(=O)NCCSCc2cccc(Cl)c2)cc1 | inactive: -2.82%
COc1ccc(CC(=O)OCC(=O)NC2CCCCCC2)cc1OC | inactive: 3.98%
O=C(Nc1ccncc1)C1CC(=O)N(Cc2ccccc2)C1 (stereo unspecified) | inactive: -0.336%
CCS(=O)(=O)C1=NN2C(=N)/C(=C\c3ccc(OCCOc4cccc(OC)c4)c(OC)c3)C(=O)N=C2S1 | inactive: -4.5%
CC1CCCCC12NC(=O)N(CC(=O)Nc1nccs1)C2=O (stereo unspecified) | inactive: -4.07%

SMILES | inhibition
COc1ccccc1CN1CCNC(=O)C1CC(=O)NCc1c(C)n[nH]c1C (stereo unspecified) | inactive: -18%
CSc1nnc(NC(=O)c2ccc(S(=O)(=O)N3CCOCC3)cc2)s1 | inactive: -5.73%
CCOc1ccc(C=Nc2cccc3ncccc23)cc1 | inactive: 0.879%
CCC1Oc2ccccc2N(CC(=O)NCCCN2CCOCC2)C1=O (stereo unspecified) | inconclusive: 2.21%
O=C(c1cccc(S(=O)(=O)NCc2ccccc2)c1)N1CCN(c2ccccc2Cl)CC1 | inconclusive: 9.63%
CN1CCc2cccc3c2C1Cc1ccc(O)c(O)c1-3 (stereo unspecified) | inactive: -1.55%
COC(=O)[C@]1(C)N[C@H](CN(C)C(=O)Nc2ccc(Cl)cc2)[C@@H]2C(=O)N(Cc3ccccc3)C(=O)[C@@H]21 | inactive: -1.24%
CCCOc1ccc(C2=CSC3=NCCN23)cc1Cl | inconclusive: 10.4%
NC(=O)c1cc[n+](CC2=C(C(=O)O)N3C(=O)[C@@H](NC(=O)C(c4ccccc4)S(=O)(=O)[O-])[C@H]3SC2)cc1 (stereo partly specified) | active: 23.2%
Cc1cccc(NC2=C(NCCO)C(=O)c3ccccc3C2=O)c1 | inactive: -2.95%
CCC(=O)c1ccc(OCC(=O)Nc2cccc(S(=O)(=O)N(C)c3ccccc3)c2)cc1 | inactive: -8.64%
N#CC1(C#N)COC23CCCCC2C1(C#N)C(=N)O3 (stereo unspecified) | active: 21%
CC(=O)Nc1cccc(NC(=O)C(=O)c2cn(CC(=O)N3CCCCC3)c3ccccc23)c1 | inconclusive: 8.09%
CC1=Nc2ccc(C)cc2/C1=C/c1c(N)n2c(S(=O)(=O)C(C)C)nsc2nc1=O | inconclusive: 12%
COCCCNCCOCCOc1ccc(C)cc1[N+](=O)[O-] | inconclusive: 9.38%
O=S(=O)(NCc1ccc(Cl)cc1)NCc1ccc(Cl)cc1 | inactive: -1.61%
CN(C)c1ccc(/C=C/C(=O)c2ccc(O)cc2)cc1 | inactive: -97.3%
CCC(C(=O)NC1C(=O)N2C(C(=O)O)=C(CSc3nnc(C)s3)CSC12)c1ccccc1 (stereo unspecified) | active: 30%
